Source: patent publication US20190233542A1
No constants are given. Whether binding was seen depends on the method and setting. Some entries that bind do so weakly or less than the wild type.

By UniProt entry, the sequences of proteins in these tests, tags left out. Residues count along the entry.
UniProt Q8NBP7, residues 31-692: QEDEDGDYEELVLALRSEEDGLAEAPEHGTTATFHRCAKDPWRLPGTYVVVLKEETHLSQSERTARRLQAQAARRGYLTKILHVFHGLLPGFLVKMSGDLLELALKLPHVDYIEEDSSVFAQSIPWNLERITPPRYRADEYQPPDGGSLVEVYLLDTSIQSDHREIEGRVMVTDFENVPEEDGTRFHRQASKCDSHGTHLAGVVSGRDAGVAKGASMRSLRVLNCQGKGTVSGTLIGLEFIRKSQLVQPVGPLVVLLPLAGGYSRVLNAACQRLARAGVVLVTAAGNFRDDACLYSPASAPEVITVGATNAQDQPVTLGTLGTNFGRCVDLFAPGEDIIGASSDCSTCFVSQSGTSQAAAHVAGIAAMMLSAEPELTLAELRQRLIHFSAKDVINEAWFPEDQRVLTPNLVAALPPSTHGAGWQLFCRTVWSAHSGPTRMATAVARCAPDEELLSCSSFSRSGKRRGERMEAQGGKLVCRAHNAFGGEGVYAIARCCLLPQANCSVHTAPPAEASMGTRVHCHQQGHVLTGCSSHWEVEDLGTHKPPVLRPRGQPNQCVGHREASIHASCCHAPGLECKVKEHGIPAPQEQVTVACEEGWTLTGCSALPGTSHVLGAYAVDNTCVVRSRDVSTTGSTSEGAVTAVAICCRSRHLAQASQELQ

What was measured:
[1] = biological target: human PCSK9-mFc-biotin (human) (UniProt Q8NBP7); assay: competitive ELISA: antibody titrated against the binding of PCSK9 to LDL-R, A450
[2] = biological target: human PCSK9 (Proprotein Convertase Subtilisin/Kexin type 9) (human) (UniProt Q8NBP7); assay: ELISA on streptavidin-captured biotin-labeled PCSK9 after incubation in human serum
[3] = biological target: human PCSK9 (Proprotein Convertase Subtilisin/Kexin type 9) (human) (UniProt Q8NBP7); assay: ELISA on biotin-labeled PCSK9 captured on streptavidin, antibody diluted from human serum after 0 or 3 days at 37 C, goat anti-human-HRP
[4] = biological target: human PCSK9 (Proprotein Convertase Subtilisin/Kexin type 9) (human) (UniProt Q8NBP7); assay: ELISA, antibody titrated on human PCSK9, A450
[5] = biological target: human PCSK9 (Proprotein Convertase Subtilisin/Kexin type 9) (human) (UniProt Q8NBP7); assay: ELISA

Measured: binding

B1: 17.72.3-uAb2-IgG4K (antibody, V domains shown)
VH: QVQLQESGPGLVKPSGTLSLTCAVSGGSIRSYNWWSWVRQPPGEGLEWIGEIHHSGTTNYNPSLKSRVTISVDKSKNQFSLKLSSVTAADTAVYYCARDYSGSYFDYWGQGTLVTVSS
VL: EVVLTQSPATLSLSPGERATLSCRTSQSLSSYVAWSQQKPGQAPRLLIYDASKRATGVPARFSGSGSGTDFTLTISNLEPEDFAVYYCHQRGNWMSSFGQGTKLEIK
binds: all assays above
